At least one structure is not confirmed: it was looked up by name or label, or the drawing left a doubt.
Test system: S. aureus (ATCC 25923)
Test: Dark toxicity, viability of S. aureus (CFU count)
Type: cell-based
Settings: dark conditions; compared to control
Experimental: S. aureus (ATCC 25923) were grown on Brain Heart agar plates (BHA, Acumedia, Lansing, MI, USA) for 24 hours. […] 200 μl Cell suspensions in 0.9% saline (10^3-10^4 cells/ml) in sterile saline solution were incubated with 20 μl of PDT nanoparticle conjugates (400 μg/ml) in the dark with shaking for 30 minutes. Subsequently, aliquots of each sample (100 μl) were spread over BHA plates with a Drigalsky spreader and incubated at 37° C. for 24 h. The colony forming units (CFU) were counted using a colony counter Scan 500 (Interscience, Saint-Nom-la-Breteche, France).

C=CC1=C(C)c2cc3[nH]c(cc4nc(cc5[nH]c(cc1n2)c(C)c5CCC(=O)O)C(CCC(=O)O)=C4C)c(C)c3C=C [PPIX, protoporphyrin IX]
effect on viability of S. aureus (in words): didn't affect the viability significantly
